The record followed here is the supplement of paper PMC12542422.

Where a name gives a salt, the structure may show the parent alone. ± gives the standard deviation of the averaged measurements. This is one part of the list. These are raw signals, not scaled to a control.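 Across three biological replicates, HeLa cells were imaged for ribosome assembly using ENP1 staining (export block present or absent) or inducible tagged ribosomal protein reporters. Machine learning classified each cell's signal localization relative to DMSO controls. Hits exceeded the DMSO false-positive mean by five standard deviations and were then visually confirmed.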

The subject of this test is HeLa K (ENP1 immunofluorescence, no LMB). Description: fraction of cells with nucleolar or nucleolar/nucleoplasmic ENP1 signal (MainHitrate); higher = more cells with nucleolar/nuclear readout signal (for ENP1 -LMB: less RNAPI inhibition; for +LMB ENP1 and RP reporters: stronger nuclear/nucleolar retention, i.e. ribosome biogenesis defect). The settings on record: concentration: 1 µM; treatment time: 6 h; ENP1 -LMB; leptomycin B: none.
For the compound `Cc1nccn1CC1CCc2c(c3ccccc3n2C)C1=O` (stereo not drawn) [Ondansetron (Zofran)], the fraction was determined as 0.989 ± 0.02.
In the case of `CCCNC(C)C(=O)Nc1c(C)csc1C(=O)OC` (stereo not drawn) [Articaine HCl], the fraction was 0.993 ± 0.012.
Consider `CC(C)C[C@H](NC(=O)[C@H](CCc1ccccc1)NC(=O)CN1CCOCC1)C(=O)N[C@@H](Cc1ccccc1)C(=O)N[C@@H](CC(C)C)C(=O)[C@@]1(C)CO1` [Carfilzomib (PR-171)], for which the fraction turned out to be 0.971 ± 0.05.
`O=C(O)Cc1cc(I)c(Oc2ccc(O)c(I)c2)c(I)c1` [Tiratricol] registered a fraction of 0.981 ± 0.032.
With `CCC(=O)O[C@]1(C(=O)CCl)[C@@H](C)C[C@H]2[C@@H]3CCC4=CC(=O)C=C[C@]4(C)[C@@]3(F)[C@@H](O)C[C@@]21C` [Clobetasol propionate] the figure was 0.993 ± 0.012; with `CC[C@@H]1C(=O)OC[C@@H]1Cc1cncn1C` [Pilocarpine HCl], 0.985 ± 0.025.
For `CC(=O)O[C@]1(C(C)=O)CC[C@H]2[C@@H]3C[C@H](C)C4=CC(=O)C=C[C@]4(C)[C@@]3(F)[C@@H](O)C[C@@]21C` [Fluorometholone Acetate] the value was 0.992 ± 0.014.
In turn, `c1ccc2[nH]c(-c3cscn3)nc2c1` [Thiabendazole] displayed a fraction of 0.999 ± 0.0018.
`CN(C)CCC[C@@]1(c2ccc(F)cc2)OCc2cc(C#N)ccc21` [Escitalopram oxalate]: the fraction is 0.957 ± 0.075.
With `O=C(NC(Cc1cc(=O)[nH]c2ccccc12)C(=O)O)c1ccc(Cl)cc1` (stereo not drawn) [Rebamipide] the figure was 0.987 ± 0.023; with `Cc1cccc(N(C)C(=S)Oc2ccc3ccccc3c2)c1` [Tolnaftate], 0.9955 ± 0.0078.
The compound `CCCC(CCC)C(=O)O` [Divalproex sodium] displayed a fraction of 0.9982 ± 0.0032.
In turn, `CCOC(=O)c1ccc(C#Cc2ccc3c(c2)C(C)(C)CCS3)nc1` [Tazarotene (Avage)] showed a fraction of 0.998 ± 0.0035.
For `CC(C)CC(N)=O` [Isovaleramide] the value was 0.989 ± 0.02.
The compound `O=c1n(CCCN2CCN(c3cccc(Cl)c3)CC2)nc2ccccn12` [Trazodone hydrochloride (Desyrel)] displayed a fraction of 0.994 ± 0.01.
As for `Clc1ccc(C(Cn2ccnc2)OCc2c(Cl)cccc2Cl)c(Cl)c1` (stereo not drawn) [Isoconazole nitrate (Travogen)], the fraction turned out to be 0.981 ± 0.033.
With `C=CCNC(N)=S` [Allylthiourea] the figure was 0.984 ± 0.028.
With `OC[C@H]1O[C@H](O[C@]2(CCl)O[C@H](CCl)[C@@H](O)[C@@H]2O)[C@H](O)[C@@H](O)[C@H]1Cl` [Sucralose] the figure was 0.986 ± 0.025; with `CCC(=O)O[C@]1(C(=O)SCF)[C@H](C)C[C@H]2[C@@H]3C[C@H](F)C4=CC(=O)C=C[C@]4(C)[C@@]3(F)[C@@H](O)C[C@@]21C` [Fluticasone propionate (Flonase, Veramyst)], 0.9956 ± 0.0076.
For `Nc1ncnc2c1ncn2[C@@H]1O[C@H](CO)[C@@H](O)[C@H]1O` [Adenosine (Adenocard)] the value was 0.9987 ± 0.0022.
In the case of `CCCN(CCC)CCc1cccc2c1CC(=O)N2` [Ropinirole HCl], the fraction was found to be 0.985 ± 0.025.
`O=C(O)CCCC[C@@H]1SC[C@@H]2NC(=O)N[C@@H]21` [Biotin (Vitamin B7)] displayed a fraction of 0.978 ± 0.039.
With `CN1CCCCC1CCN1c2ccccc2Sc2ccc([S+](C)[O-])cc21` (stereo not drawn) [Mesoridazine Besylate] the figure was 0.9945 ± 0.0095; with `CC1(C)S[C@@H]2[C@H](NC(=O)Cc3ccccc3)C(=O)N2[C@H]1C(=O)O` [Benzylpenicillin sodium], 0.982 ± 0.03; with `CCOC(CN1CCN(CC(C)C(=O)c2ccccc2)CC1)c1ccccc1` (stereo not drawn) [Eprazinone 2HCl], 0.984 ± 0.028.
For `Cc1cc(C(C)(C)C)c(O)c(C)c1CC1=NCCN1` [Oxymetazoline hydrochloride], the fraction came to 0.994 ± 0.01.
`CO[C@H]1C(=O)[C@]2(C)[C@@H](OC)C[C@H]3OC[C@@]3(OC(C)=O)[C@H]2[C@H](OC(=O)c2ccccc2)[C@]2(O)C[C@H](OC(=O)[C@H](O)[C@@H](NC(=O)OC(C)(C)C)c3ccccc3)C(C)=C1C2(C)C` [Cabazitaxel (Jevtana)]: the fraction is 0.986 ± 0.025.
In turn, `Nc1nc(Cl)nc2c1ncn2[C@H]1C[C@H](O)[C@@H](CO)O1` [Cladribine] returned a fraction of 0.994 ± 0.011.
With `COc1cc(C(=O)NC2CCCNC2)cc(OC)c1OC` (stereo not drawn) [Troxipide] the figure was 0.993 ± 0.012.
Take `CNC(=C[N+](=O)[O-])NCCSCc1csc(CN(C)C)n1` [Nizatidine]: the fraction is 0.989 ± 0.019.
The compound `CC(=O)Oc1cc2c(s1)CCN(C(C(=O)C1CC1)c1ccccc1F)C2` (stereo not drawn) [Prasugrel (Effient)] registered a fraction of 0.9987 ± 0.0023.
For `CC1=NN(c2ccccc2)C(=O)C1` [Edaravone (MCI-186)] the value was 0.9982 ± 0.003; for `[O-][n+]1cccc(CO)c1` [Mepiroxol], 0.997 ± 0.0052.
